The assay relates to HEK293A TEAD-LUC reporter. Kind of assay: TEAD-luciferase reporter activity (YAP activation), robust Z score vs plate; higher = stronger YAP/TEAD activation. Particulars: 24 h. (A reporter such as luciferase makes a cellular process visible.)

Structures can show the parent of a compound that is named as a salt. The list shows a part of the results. This data set is noisy: repeats of one test often differ as much as different tests do.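 The human kidney-derived cells carry a stably integrated construct of eight TEAD-binding elements driving luciferase, read by luminescence in a drug-repurposing library screen. A compound counts as a hit when its signal is more than five robust Z scores above the plate mean.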

`N=C(N)NCCC[C@@H](NC(=O)[C@@H](N)Cc1ccc(O)cc1)C(=O)NCC(=O)N[C@@H](Cc1ccc([N+](=O)[O-])cc1)C(=O)N1CCC[C@H]1C(N)=O`: the TEAD-luciferase reporter activity (compound concentration: 200 nM) was inactive: -0.419, the TEAD-luciferase reporter activity (compound concentration: 2 uM) is inactive: -0.0521 and the TEAD-luciferase reporter activity (compound concentration: 10 uM) was inactive: 0.455.
For `C=CCC1(CC=C)C(=O)NC(=O)NC1=O`, in that order: inactive: -0.428, inactive: -0.946 and inactive: 2.43.
With `Cc1sc2ccccc2c1CC1=NCCN1`, the TEAD-luciferase reporter activity was inactive: -0.102 (compound concentration: 200 nM), inactive: -1.18 (compound concentration: 2 uM) and inactive: 1.29 (compound concentration: 10 uM).
On the same counts, the results for `CCC(C)C(C)(COC(N)=O)COC(=O)NC(C)C` (stereo unspecified) are inactive: 1.1, inactive: -0.458 and inactive: -0.42.
`CCC1(c2ccccc2)C(=O)N(COC)C(=O)N(COC)C1=O` [eterobarb]: the TEAD-luciferase reporter activity was inactive: -0.466 (compound concentration: 200 nM), inactive: -1.34 (compound concentration: 2 uM) and inactive: -0.0203 (compound concentration: 10 uM).
On the same counts, the results for `CNC(C)(C)Cc1ccccc1` are inactive: -0.84, inactive: -0.669 and inactive: 0.492.
For the compound `CC(C)CC1C(=O)N2CCCC2C2(O)OC(NC(=O)C3CC4c5cccc6[nH]cc(c56)CC4N(C)C3)(C(C)C)C(=O)N12` (stereo unspecified) [dihydroergocryptine, Poli], the TEAD-luciferase reporter activity reads like this: (compound concentration: 200 nM) inactive: -0.326; (compound concentration: 10 uM) inactive: -2.85.
For the compound `CC(C)CC1C(=O)N2CCCC2C2(O)OC(NC(=O)C3CC4c5cccc6[nH]cc(c56)CC4N(C)C3)(C(C)C)C(=O)N12` (stereo unspecified) [dihydroergocryptine], under “compound concentration: 2 uM”, the TEAD-luciferase reporter activity is inactive: -1.36.
Regarding `Cc1csc(Cl)c1NC1=NCCN1` [Tiamenidine], the TEAD-luciferase reporter activity is inactive: -0.799 (compound concentration: 200 nM), inactive: -1.89 (compound concentration: 2 uM) and inactive: 0.854 (compound concentration: 10 uM).
On the same counts, the results for `CC1=Cc2cc3c(cc2C(c2ccc(N)cc2)=NN1)OCO3` are inactive: -0.663, inactive: 1.62 and inactive: 0.0691.
Regarding `Cn1ccc2c(Nc3cccc(Cl)c3)ncc(C(=O)N3CCOCC3)c21`, the TEAD-luciferase reporter activity (compound concentration: 200 nM) is inactive: -1.16, the TEAD-luciferase reporter activity (compound concentration: 2 uM) was inactive: -0.103 and the TEAD-luciferase reporter activity (compound concentration: 10 uM) is inactive: -0.128.
`C[N+]1(C)CCOC(O)(c2ccc(-c3ccc(C4(O)C[N+](C)(C)CCO4)cc3)cc2)C1` (stereo unspecified): the TEAD-luciferase reporter activity was inactive: 0.213 (compound concentration: 200 nM), inactive: 1.04 (compound concentration: 2 uM) and inactive: -0.184 (compound concentration: 10 uM).
As for `Cc1ccccc1-n1c(CF)nc2ccc(N)cc2c1=O` [afloqualone], the TEAD-luciferase reporter activity was inactive: -0.697 (compound concentration: 200 nM), inactive: -1.24 (compound concentration: 2 uM) and inactive: -0.905 (compound concentration: 10 uM).
As to `CN1C(=O)C(NC(=O)NC(CC2CCCCC2)C(O)CSc2nnnn2C)N=C(c2ccccc2)c2ccccc21` (stereo unspecified), the TEAD-luciferase reporter activity is, setting by setting: (compound concentration: 200 nM) inactive: -0.668; (compound concentration: 2 uM) inactive: -0.791; (compound concentration: 10 uM) inactive: -1.09.
For `CC[C@@]1(O)C(=O)OCc2c1cc1n(c2=O)C(OCCO)c2cc3ccccc3nc2-1` (stereo partly specified), in that order: inactive: -0.105, inactive: -0.535 and inactive: -1.44.
On the same counts, the results for `CN1c2ccccc2C(c2ccccc2)=NCC1CCNC(=O)c1ccc(F)cc1` (stereo unspecified) are inactive: -2.45, inactive: -1.74 and inactive: 0.233.
For the compound `COc1ccsc1CNCC[C@@]1(c2ccccn2)CCOC2(CCCC2)C1`, the TEAD-luciferase reporter activity (compound concentration: 200 nM) is inactive: 0.308, the TEAD-luciferase reporter activity (compound concentration: 2 uM) was inactive: 1.15 and the TEAD-luciferase reporter activity (compound concentration: 10 uM) was inactive: -1.67.
For `CCCC1(c2cccc(O)c2)CCN(C)C1` (stereo unspecified), the TEAD-luciferase reporter activity reads like this: (compound concentration: 200 nM) inactive: -1.3; (compound concentration: 2 uM) inactive: -0.343; (compound concentration: 10 uM) inactive: 0.301.
As to `Cc1cccc(NC(=O)N[C@@H]2N=C(c3ccccc3)c3ccccc3N(C)C2=O)c1`, the TEAD-luciferase reporter activity (compound concentration: 200 nM) is inactive: -0.0605, the TEAD-luciferase reporter activity (compound concentration: 2 uM) was inactive: 0.446 and the TEAD-luciferase reporter activity (compound concentration: 10 uM) was inactive: 2.18.
On the same counts, the results for `CC(Cc1ccc2c(c1)OCO2)NCC(O)c1ccc(O)c(O)c1` (stereo unspecified) are inactive: -0.0169, inactive: 0.336 and inactive: 4.14.
On the same counts, the results for `CC(C)(O)C(Cl)(Cl)Cl` are inactive: 0.0883, inactive: -0.102 and inactive: 1.67.
Regarding `[Hg+][c]1ccccc1`, the TEAD-luciferase reporter activity (compound concentration: 200 nM) was inactive: -0.311, the TEAD-luciferase reporter activity (compound concentration: 2 uM) was inactive: 1.69 and the TEAD-luciferase reporter activity (compound concentration: 10 uM) is active: 9.7.
`CCCNC(=O)c1c(NC(=O)C23CC4CC(CC(C4)C2)C3)sc2c1CCOC2`: the TEAD-luciferase reporter activity by setting is: (compound concentration: 200 nM) inactive: 0.435; (compound concentration: 2 uM) inactive: 1.41; (compound concentration: 10 uM) inactive: -0.267.
In the case of `O=C(c1ccncc1)N1CC2CCC(C1)N2Cc1ccc(Cl)cc1`, the TEAD-luciferase reporter activity (compound concentration: 200 nM) was inactive: 0.0731 and the TEAD-luciferase reporter activity (compound concentration: 10 uM) was inactive: 0.661.
As to `Fc1ccc(F)c2c1OC1CNCC1O2` (stereo unspecified), the TEAD-luciferase reporter activity by setting is: (compound concentration: 200 nM) inactive: -2.79; (compound concentration: 2 uM) inactive: 0.127; (compound concentration: 10 uM) inactive: -1.29.
On the same counts, the results for `C#C[C@]1(OC(=O)CCCCCC)CC[C@H]2[C@@H]3CCC4=CC(=O)CC[C@@H]4[C@H]3CC[C@@]21C` [Norethisterone enanthate] are inactive: -0.386, inactive: 3.31 and inactive: -1.75.
On the same counts, the results for `O=c1[nH]c2ccccc2n1CCCN1CCC(n2c(=O)[nH]c3cc(Cl)ccc32)CC1` [domperidone] are inactive: -0.422, inactive: -0.25 and inactive: 3.93.
On to `C[C@@H]1CN([C@H]2CC[C@](C#N)(c3ccc(F)cc3)CC2)CC[C@]1(C(=O)O)c1ccccc1` [Levocabastine HCl], for which the TEAD-luciferase reporter activity runs as follows: (compound concentration: 200 nM) inactive: -0.785; (compound concentration: 10 uM) inactive: -0.555.
As to `C[C@@H]1CN([C@H]2CC[C@](C#N)(c3ccc(F)cc3)CC2)CC[C@]1(C(=O)O)c1ccccc1` [levocabastine], the TEAD-luciferase reporter activity (compound concentration: 2 uM) is inactive: 1.78.
With `CNCC(OC)c1cccc(C(F)(F)F)c1` (stereo unspecified), the TEAD-luciferase reporter activity is inactive: 1.23 (compound concentration: 200 nM), inactive: 1.96 (compound concentration: 2 uM) and inactive: -0.122 (compound concentration: 10 uM).
Take `O=[N+]([O-])NC1=NCCN1Cc1ccc(Cl)nc1` [Imidacloprid]: the TEAD-luciferase reporter activity runs as follows: (compound concentration: 200 nM) inactive: 0.447; (compound concentration: 2 uM) inactive: 0.681; (compound concentration: 10 uM) inactive: -1.21.
On the same counts, the results for `O=S(=O)([O-])CCNCl` [N-Chlorotaurine] are inactive: -0.362, inactive: 2.88 and inactive: 0.0769.
On the same counts, the results for `COc1ccc(NC(=S)N2CCc3c(sc4c3C(c3ccccc3Cl)=NCc3nnc(C)n3-4)C2)cc1` are inactive: 0.29, inactive: -2.03 and inactive: -2.3.
For `CNCCc1cnc[nH]1` [N'-Methylhistamine], in that order: inactive: -0.726, inactive: -0.884 and inactive: -0.729.
Regarding `C[C@@H](NC(=O)[C@@H](N)Cc1ccc(O)cc1)C(=O)NCC(=O)N[C@@H](Cc1ccc([N+](=O)[O-])cc1)C(=O)N1CCC[C@H]1C(N)=O`, the TEAD-luciferase reporter activity reads like this: (compound concentration: 200 nM) inactive: -1.98; (compound concentration: 2 uM) inactive: -0.348; (compound concentration: 10 uM) inactive: 1.74.
For `CC(C(O)c1ccccc1)N(C)C/C=C/c1ccccc1` (stereo unspecified), the TEAD-luciferase reporter activity (compound concentration: 200 nM) was inactive: -0.994, the TEAD-luciferase reporter activity (compound concentration: 2 uM) is inactive: -0.861 and the TEAD-luciferase reporter activity (compound concentration: 10 uM) is inactive: -2.32.

(Values after the supplement of paper PMC10735217.)
